No constants are given. Whether binding was seen depends on the method and setting. In cells and extracts the contact can be indirect. Some binding calls cover weakened binding; strength is not graded here.
What was measured:
[1] = biological target: T1, USP1, overexpressed in HEK293 cells (pcDNA3.1 Usp1) (UniProt Q8BJQ2); experiment: co-IP; both proteins overexpressed in HEK293 cells; lysates immunoprecipitated using IgG and USP1 antibodies, western blot
T1 sequence: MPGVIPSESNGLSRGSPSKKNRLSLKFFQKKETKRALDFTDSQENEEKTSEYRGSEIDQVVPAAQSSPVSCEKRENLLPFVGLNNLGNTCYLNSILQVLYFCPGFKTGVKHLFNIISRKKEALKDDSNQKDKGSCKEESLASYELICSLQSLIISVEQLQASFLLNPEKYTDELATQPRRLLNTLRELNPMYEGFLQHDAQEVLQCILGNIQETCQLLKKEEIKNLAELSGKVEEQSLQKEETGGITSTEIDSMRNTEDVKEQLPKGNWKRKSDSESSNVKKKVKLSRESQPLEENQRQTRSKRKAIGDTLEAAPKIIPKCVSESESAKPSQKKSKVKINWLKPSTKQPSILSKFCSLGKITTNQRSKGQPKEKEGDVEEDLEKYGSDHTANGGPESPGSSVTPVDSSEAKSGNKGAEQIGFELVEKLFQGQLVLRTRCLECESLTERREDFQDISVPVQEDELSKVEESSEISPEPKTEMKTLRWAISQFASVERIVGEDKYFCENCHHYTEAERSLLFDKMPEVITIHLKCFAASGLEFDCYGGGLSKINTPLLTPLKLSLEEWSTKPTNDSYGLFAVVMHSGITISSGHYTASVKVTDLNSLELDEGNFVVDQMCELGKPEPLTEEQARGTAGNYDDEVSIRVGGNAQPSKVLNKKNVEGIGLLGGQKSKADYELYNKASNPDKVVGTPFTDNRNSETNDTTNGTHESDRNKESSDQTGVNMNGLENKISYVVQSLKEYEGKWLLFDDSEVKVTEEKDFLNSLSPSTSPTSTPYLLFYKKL

Protein sequences, listed by entry. Tags and fused reporters are not part of them.
UniProt P28033: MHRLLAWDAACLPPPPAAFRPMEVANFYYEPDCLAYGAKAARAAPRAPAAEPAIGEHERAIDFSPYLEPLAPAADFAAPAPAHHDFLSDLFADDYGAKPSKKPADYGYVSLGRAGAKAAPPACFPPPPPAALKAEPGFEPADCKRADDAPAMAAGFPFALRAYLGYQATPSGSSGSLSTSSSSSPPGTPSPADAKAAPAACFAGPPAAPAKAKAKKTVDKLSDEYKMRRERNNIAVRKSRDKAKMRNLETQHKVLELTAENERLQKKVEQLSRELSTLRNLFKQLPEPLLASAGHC

[2] = biological target: T2, ubiquitin-specific protease 1 (USP1), endogenous in AML12 cells (mouse (endogenous in AML12)) (UniProt Q8BJQ2); experiment: condition: only AML12 cells treated with ML323 for 48 h (20 μM by the methods); co-IP; endogenous proteins; AML12 cells treated with ML323 for 48 h, lysates immunoprecipitated using IgG and USP1 antibodies
T2 sequence: T1 sequence

[3] = biological target: T2, ubiquitin-specific protease 1 (USP1), endogenous in AML12 cells (mouse (endogenous in AML12)); experiment: co-IP; endogenous proteins; AML12 cell lysates immunoprecipitated using IgG and USP1 antibodies, overnight at 4 °C, western blot

Row | binding [1] | binding [2] | binding [3] | Substance
1 | binds | – | – | C/EBPβ, overexpressed in HEK293 cells (pcDNA3.1 Cebpb) (from UniProt P28033 1-296)
2 | – | no binding | binds | CCAAT/enhancer-binding protein beta (C/EBPβ), endogenous in AML12 cells (from UniProt P28033 1-296)
